Reference: patent publication US20220347113A1
No constants are given. Whether binding was seen depends on the method and setting. Some binding calls cover weakened binding; strength is not graded here.

Protein sequences, listed by entry. Tags and fused reporters are not part of them. Lines headed by an entry give the natural chain unless they say otherwise; changes in a name come on top.
UniProt Q9QUM0: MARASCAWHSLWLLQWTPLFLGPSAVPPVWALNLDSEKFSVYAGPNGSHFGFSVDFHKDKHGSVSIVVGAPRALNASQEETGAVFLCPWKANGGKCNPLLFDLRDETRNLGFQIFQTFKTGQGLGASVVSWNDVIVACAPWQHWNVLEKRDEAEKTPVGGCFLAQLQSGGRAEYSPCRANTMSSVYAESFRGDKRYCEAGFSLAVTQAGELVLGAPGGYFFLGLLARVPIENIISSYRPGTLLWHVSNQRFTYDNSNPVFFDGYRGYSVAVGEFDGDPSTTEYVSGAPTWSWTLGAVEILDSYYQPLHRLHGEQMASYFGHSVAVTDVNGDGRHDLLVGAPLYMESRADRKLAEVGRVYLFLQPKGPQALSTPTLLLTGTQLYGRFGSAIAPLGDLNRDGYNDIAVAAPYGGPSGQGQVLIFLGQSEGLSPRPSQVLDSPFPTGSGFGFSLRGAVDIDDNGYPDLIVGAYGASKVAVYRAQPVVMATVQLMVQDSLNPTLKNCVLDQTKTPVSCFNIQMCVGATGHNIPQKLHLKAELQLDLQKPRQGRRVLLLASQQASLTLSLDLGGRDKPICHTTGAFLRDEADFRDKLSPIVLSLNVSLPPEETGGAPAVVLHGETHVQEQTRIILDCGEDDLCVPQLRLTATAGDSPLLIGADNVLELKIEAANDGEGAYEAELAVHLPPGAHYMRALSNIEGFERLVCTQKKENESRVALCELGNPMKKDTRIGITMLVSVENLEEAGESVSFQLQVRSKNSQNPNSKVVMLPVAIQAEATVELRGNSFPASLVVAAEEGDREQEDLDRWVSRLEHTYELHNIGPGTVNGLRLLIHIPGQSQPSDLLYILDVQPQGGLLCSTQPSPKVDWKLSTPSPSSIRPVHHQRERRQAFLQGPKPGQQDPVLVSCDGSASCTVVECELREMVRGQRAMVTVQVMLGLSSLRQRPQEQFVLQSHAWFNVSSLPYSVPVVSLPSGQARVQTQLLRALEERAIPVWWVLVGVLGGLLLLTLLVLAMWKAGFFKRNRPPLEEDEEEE
UniProt O54890: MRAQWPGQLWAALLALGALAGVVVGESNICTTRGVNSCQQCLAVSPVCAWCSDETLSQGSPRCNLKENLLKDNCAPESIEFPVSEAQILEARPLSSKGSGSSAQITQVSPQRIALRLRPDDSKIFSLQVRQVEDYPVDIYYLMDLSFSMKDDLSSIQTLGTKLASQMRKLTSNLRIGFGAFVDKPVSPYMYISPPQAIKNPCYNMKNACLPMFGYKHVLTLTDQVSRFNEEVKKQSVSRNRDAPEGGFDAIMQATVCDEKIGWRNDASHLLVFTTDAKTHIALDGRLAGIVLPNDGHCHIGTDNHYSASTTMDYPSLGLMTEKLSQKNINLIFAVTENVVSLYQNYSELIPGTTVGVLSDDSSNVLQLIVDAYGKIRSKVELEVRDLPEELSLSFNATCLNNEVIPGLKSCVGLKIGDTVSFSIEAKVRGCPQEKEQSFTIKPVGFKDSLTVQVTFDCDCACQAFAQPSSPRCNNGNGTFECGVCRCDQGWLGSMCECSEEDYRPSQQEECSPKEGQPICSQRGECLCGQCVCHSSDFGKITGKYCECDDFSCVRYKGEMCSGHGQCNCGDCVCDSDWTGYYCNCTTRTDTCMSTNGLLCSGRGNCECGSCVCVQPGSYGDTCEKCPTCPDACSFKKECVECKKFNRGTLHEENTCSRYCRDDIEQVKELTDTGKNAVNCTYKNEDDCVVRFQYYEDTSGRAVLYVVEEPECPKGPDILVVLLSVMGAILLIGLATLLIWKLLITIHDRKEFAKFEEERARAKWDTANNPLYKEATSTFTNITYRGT
UniProt P02671: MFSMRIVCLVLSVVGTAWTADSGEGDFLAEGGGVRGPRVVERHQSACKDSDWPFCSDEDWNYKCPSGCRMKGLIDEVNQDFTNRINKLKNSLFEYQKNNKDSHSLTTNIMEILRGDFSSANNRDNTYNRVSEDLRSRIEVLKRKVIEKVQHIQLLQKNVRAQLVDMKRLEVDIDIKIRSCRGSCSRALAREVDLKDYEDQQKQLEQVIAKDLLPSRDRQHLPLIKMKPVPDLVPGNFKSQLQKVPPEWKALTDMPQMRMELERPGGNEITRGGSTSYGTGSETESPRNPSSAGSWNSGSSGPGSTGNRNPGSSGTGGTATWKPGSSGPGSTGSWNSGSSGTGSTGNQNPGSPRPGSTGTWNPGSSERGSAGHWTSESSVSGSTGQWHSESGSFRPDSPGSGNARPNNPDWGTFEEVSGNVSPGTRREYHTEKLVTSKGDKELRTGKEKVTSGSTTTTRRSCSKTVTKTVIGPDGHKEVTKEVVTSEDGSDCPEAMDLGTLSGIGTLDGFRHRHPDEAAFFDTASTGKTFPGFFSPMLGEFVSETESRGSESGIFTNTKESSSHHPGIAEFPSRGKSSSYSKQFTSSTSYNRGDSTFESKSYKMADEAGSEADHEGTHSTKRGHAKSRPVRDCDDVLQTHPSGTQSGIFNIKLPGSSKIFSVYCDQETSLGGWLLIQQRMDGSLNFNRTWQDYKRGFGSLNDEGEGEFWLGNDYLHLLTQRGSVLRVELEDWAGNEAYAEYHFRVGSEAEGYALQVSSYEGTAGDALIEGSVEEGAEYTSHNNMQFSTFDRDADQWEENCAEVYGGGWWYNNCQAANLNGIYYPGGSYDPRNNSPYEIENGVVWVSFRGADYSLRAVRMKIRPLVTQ

Biological target: integrin αIIbβ3 (mouse, on platelets) (mouse) (UniProt Q9QUM0+O54890)
Assay: flow cytometry on PAR4AP-stimulated washed mouse platelets

- binding: binds
Substance: Oregon Green-conjugated fibrinogen (from UniProt P02671 20-629; P02675 31-491; P02679 27-437) (ligand)
